No constants are given. Whether binding was seen depends on the method and setting. Some binding calls cover weakened binding; strength is not graded here.
Columns and labels:
[1] = target: T1, cynomolgus PD-L1 on the cell surface (cynomolgus, UniProt G7PSE7 19-290); assay: FACS on cells expressing cynomolgus PD-L1
T1 construct: also called cell surface cynomolgus PD-L1

[2] = target: T1, cynomolgus PD-L1 on the cell surface; assay: FACS on cells expressing cynomolgus PD-L1, goat anti-human IgG Fc FITC
Description: Cross-reactivity was measured by FACS. […] Testing antibodies were diluted in wash buffer (1><PBS/1% BSA) and incubated with cells at 4° C. for 1 hour. After washing, the secondary antibody goat anti-human IgG Fc FITC (Jackson ImmunoResearch Lab) was added and incubated at 4° C. in the dark for 1 hour. The cells were then washed once and resuspended in 1><PBS/1% BSA, and analyzed by flow cytometry (BD).

B1: W3152-r11.135.5-zAb17-m6-uIgG4L (antibody, V domains shown)
VH: QVQLQESGPGLVKPSETLSLTCTVSGFSLTENSVSWIRQPPGKGLEWIGAVWSSGSTDYNSALKSRVTISRDTSKNQFSLKLSSVTAADTAVYYCTRSTYSNDFYYYFDYWGQGTMVTVSS
VL: SYELTQPPSVSVSPGQTASITCSGSELPKRYAYWYQQKPGQSIVRVIYKDSERPSGISERFSGSSSGNTATLTISGTQAMDEADYYCSSTYGDRKLPIFGGGTKLTVLG
notes: also called W3152-r11.135.5-zAb17-m6-IgG4L
binding [1]: binds | binding [2]: binds
